Results reported in the supplement of paper PMC10849652.
Some of the results follow.

Sequences of proteins named here, by UniProt entry; tags and fusion partners are left off. A change or cut given only in a name is not applied to a line headed by its entry.
UniProt P28749: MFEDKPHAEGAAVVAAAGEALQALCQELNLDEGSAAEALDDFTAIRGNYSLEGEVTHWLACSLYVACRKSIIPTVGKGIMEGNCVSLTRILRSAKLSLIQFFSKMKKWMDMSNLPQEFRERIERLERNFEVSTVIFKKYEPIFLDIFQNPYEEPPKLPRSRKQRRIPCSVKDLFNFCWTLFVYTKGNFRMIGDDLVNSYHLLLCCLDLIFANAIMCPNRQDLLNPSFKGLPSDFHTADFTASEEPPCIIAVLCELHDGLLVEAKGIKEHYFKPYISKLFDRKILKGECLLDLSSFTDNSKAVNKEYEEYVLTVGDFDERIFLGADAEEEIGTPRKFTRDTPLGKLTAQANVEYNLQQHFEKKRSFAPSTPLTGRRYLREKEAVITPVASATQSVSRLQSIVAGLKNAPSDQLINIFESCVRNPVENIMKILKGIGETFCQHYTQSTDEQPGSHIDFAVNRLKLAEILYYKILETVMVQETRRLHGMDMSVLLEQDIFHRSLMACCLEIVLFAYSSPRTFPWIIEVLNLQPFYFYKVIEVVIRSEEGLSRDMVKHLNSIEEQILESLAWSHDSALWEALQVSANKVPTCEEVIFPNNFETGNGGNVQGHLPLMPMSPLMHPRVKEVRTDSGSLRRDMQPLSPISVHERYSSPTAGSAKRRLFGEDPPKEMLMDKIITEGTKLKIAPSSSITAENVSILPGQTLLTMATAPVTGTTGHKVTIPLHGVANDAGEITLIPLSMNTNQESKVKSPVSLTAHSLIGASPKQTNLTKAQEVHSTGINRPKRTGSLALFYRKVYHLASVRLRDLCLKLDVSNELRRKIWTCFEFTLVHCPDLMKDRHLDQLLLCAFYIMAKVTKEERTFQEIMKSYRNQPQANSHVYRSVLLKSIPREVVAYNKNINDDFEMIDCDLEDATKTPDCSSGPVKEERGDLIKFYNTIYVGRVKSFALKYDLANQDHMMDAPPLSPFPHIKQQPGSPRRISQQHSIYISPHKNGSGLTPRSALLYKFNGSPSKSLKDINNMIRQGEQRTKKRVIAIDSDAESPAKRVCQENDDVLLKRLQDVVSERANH
UniProt Q9BWF3: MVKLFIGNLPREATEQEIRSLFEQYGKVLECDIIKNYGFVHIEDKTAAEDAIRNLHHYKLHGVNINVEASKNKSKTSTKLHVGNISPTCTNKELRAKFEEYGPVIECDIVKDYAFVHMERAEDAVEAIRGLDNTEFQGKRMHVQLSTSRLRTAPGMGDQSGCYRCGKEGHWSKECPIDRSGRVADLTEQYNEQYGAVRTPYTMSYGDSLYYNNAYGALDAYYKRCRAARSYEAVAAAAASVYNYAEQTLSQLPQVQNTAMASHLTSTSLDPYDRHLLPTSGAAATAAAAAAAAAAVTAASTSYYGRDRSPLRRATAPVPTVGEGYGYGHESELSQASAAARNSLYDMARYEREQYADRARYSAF
UniProt Q8N1G1: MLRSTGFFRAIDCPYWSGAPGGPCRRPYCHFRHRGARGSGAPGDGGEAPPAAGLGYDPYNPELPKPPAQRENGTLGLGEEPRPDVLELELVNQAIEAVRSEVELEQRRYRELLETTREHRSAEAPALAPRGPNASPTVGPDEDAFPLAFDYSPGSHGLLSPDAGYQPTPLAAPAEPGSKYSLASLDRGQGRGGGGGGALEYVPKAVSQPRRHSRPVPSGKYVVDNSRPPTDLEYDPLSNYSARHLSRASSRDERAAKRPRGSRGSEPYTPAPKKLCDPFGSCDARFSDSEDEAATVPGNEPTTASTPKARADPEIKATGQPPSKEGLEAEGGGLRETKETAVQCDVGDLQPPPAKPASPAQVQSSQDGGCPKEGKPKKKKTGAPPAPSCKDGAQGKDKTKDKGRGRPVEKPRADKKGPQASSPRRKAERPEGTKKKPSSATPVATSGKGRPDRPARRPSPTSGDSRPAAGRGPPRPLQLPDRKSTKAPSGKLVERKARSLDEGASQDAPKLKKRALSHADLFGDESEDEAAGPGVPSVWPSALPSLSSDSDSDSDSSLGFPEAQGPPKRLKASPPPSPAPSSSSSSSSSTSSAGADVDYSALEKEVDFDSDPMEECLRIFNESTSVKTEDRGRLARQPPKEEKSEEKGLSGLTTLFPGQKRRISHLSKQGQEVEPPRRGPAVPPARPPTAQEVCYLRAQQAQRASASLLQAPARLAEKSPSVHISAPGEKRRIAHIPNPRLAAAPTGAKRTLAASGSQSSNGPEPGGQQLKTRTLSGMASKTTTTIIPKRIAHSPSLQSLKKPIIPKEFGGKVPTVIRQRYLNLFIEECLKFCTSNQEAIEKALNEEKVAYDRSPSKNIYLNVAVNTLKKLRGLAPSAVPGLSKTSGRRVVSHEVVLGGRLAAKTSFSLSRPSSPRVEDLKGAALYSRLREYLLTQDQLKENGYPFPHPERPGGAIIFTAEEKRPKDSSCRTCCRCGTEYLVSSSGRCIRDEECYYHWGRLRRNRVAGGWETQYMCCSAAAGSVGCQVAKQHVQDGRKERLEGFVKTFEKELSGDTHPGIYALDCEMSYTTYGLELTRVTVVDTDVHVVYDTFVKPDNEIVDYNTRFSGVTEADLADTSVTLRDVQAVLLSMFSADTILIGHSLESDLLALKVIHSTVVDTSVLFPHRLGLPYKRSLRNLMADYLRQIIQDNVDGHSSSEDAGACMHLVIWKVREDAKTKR
UniProt Q9H1K0: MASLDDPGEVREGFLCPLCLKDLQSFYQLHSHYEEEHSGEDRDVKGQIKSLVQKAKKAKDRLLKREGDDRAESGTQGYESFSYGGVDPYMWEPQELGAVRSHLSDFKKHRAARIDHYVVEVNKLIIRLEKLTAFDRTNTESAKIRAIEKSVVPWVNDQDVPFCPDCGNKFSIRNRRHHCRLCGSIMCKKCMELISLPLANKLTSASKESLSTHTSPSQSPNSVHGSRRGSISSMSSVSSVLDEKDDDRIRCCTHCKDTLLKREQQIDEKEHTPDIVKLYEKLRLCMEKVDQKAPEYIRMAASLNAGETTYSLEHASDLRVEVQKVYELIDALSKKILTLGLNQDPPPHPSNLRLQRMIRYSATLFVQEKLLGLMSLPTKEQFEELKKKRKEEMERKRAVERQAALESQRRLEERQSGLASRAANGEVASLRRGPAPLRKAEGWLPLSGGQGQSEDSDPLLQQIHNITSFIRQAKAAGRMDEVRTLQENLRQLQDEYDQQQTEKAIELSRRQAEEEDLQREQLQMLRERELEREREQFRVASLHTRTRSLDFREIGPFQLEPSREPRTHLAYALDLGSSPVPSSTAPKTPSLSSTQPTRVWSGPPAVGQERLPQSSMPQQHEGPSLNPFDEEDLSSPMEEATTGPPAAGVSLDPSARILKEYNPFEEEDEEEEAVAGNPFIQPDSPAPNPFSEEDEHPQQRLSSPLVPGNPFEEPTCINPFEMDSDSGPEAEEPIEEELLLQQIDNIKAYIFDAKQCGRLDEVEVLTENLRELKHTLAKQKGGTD
UniProt Q8NDN9: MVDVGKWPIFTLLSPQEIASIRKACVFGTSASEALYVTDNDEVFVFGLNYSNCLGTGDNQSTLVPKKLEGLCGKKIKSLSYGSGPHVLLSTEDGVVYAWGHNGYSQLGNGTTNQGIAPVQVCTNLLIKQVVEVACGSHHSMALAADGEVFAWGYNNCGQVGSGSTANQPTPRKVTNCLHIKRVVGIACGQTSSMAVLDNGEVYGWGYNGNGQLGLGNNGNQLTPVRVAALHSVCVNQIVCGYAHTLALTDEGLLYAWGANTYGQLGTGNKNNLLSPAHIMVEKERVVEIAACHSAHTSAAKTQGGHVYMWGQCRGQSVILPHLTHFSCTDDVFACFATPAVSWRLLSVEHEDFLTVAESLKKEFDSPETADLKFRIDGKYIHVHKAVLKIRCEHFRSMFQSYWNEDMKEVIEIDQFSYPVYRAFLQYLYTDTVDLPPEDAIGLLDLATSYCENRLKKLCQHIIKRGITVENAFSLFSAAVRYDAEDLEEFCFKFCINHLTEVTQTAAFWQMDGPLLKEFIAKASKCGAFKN
UniProt Q8TEB9: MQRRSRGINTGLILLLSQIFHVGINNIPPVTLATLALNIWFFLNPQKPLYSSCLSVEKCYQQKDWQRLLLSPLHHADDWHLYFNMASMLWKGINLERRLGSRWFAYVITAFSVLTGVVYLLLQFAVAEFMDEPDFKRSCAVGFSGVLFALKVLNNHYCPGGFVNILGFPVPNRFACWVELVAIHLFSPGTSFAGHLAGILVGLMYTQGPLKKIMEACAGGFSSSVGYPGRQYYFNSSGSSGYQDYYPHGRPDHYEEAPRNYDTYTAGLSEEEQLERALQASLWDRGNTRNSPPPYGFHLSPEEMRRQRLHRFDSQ
UniProt Q8IUW5: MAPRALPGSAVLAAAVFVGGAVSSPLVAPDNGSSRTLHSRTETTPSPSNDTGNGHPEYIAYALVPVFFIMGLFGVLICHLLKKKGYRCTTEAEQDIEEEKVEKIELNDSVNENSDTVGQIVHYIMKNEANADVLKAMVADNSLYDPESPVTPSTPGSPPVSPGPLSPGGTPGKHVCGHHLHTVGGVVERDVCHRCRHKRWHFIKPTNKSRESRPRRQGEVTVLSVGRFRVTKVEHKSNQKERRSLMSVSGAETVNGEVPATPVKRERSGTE

Columns and labels:
Assay in all cases: log2 fold change, soluble protein after heating vs DMSO (PISA); higher = thermal stabilisation; K562 lysate, 10 uM; active = over 0.2 and 3.5 SD of the protein, either way, in both replicates (recomputed)
[1] = compound: NCC(=O)Nc1ccc(-n2nc(C(F)(F)F)cc2-c2ccc3c(ccc4ccccc43)c2)cc1
Summary of the method: (§1)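 A 30 min treatment with 10 μM compound was applied to crude K562 extract at 1 mg/mL protein in PBS pH 7.4 with 1 mM MgCl2. Heating for 3 min spanned 48°C-58°C, after which aliquots were pooled, adjusted to 0.5% NP-40 at 4°C and spun at 21,000xg for 90 min. TMTpro 16plex LC-MS/MS of the supernatant, with channel sums equalised, gave values recorded as log-two fold change in thermal stability against solvent controls, from duplicates.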

vorinostat = compound: O=C(CCCCCCC(=O)Nc1ccccc1)NO [vorinostat]
Summary of the method: as §1

silmitasertib = compound: O=C(O)c1ccc2c(c1)nc(Nc1cccc(Cl)c1)c1ccncc12 [silmitasertib]
Summary of the method: as §1

[2] = compound: O=C1NC(=O)C(c2cnc3ccccn23)=C1c1cn2c3c(cc(F)cc13)CN(C(=O)N1CCCCC1)CC2
Summary of the method: as §1

entospletinib = compound: c1cn2cc(-c3ccc4cn[nH]c4c3)nc(Nc3ccc(N4CCOCC4)cc3)c2n1 [entospletinib]
Summary of the method: as §1

Measured: log2 fold change

RBL1 (UniProt P28749)
inactive: [1] -0.051 | vorinostat -0.221 | silmitasertib -0.027 | [2] 0.038 | entospletinib -0.092

RBM4 isoform 3 (UniProt Q9BWF3)
inactive: [2] -0.099

REXO1 (UniProt Q8N1G1)
inactive: vorinostat -0.117 | silmitasertib 0.096 | [2] 0.036

RBSN (UniProt Q9H1K0)
inactive: [1] 0.039 | vorinostat 0.035 | silmitasertib -0.032 | [2] -0.026 | entospletinib -0.088

RCBTB1 (UniProt Q8NDN9)
inactive: vorinostat -0.093 | silmitasertib 0.107 | [2] 0.019

RHBDD1 (UniProt Q8TEB9)
inactive: [1] -0.162 | entospletinib 0.036

RELL1 (UniProt Q8IUW5)
inactive: vorinostat -0.165 | silmitasertib -0.175 | [2] 0.095
